# Results taken from PubChem BioAssay AID685 (PCMD, 2007).
# Hit rate of the full screen: of about 30,000 compounds, about 80 (0.3%) were called active. The inconclusive results got no clear call from the source; some entries with a clear call stand among them for comparison.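 Rule for the calls: active = mutant and wild-type yeast strains alike exhibit over 30% growth inhibition; inconclusive = a strain exceeds 50% while the second remains under 30%; inactive = the rest.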
# Assay: yeast growth toxicity, wild-type and mutant, primary screen, cytotoxicity control for eIF2B function restoration project, wild-type and eIF2Bepsilon R284H mutant, A595 (AID 685);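 note: 0% = untreated cell controls and 100% = YPD media blanks without cells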
# Conditions: S. cerevisiae wild-type growth, A595 turbidity, 16 h; stronger effect = higher value; screened at 25 µM (by protocol)
# In short: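 Incubation: 16 h growth with compound, 30 °C; Material: S. cerevisiae wild-type or eIF2Bepsilon-R284H mutant strain; Signal: turbidity measured as absorbance at 595 nm; Medium: YPD yeast growth medium; Measure: growth inhibition (%) versus cell controls and blanks; Doses: 25 µM single dose.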
row,SMILES,growth inhibition
1,CCOC(=O)C1=C(N)N2C(=O)C(C)SC2=C(C(=O)OC)C1c1ccccc1OC (centres undefined),active: 68.7%
2,O=C(CSc1nnc(-c2cccs2)n1-c1ccccc1)N1CCc2ccccc21,inactive: -17.5%
3,Cc1cccnc1Nc1nc(-c2ccc(O)cc2)cs1,active: 36.1%
4,COc1ccc(OC)c(S(=O)(=O)Nc2cc(Cl)cc(Cl)c2)c1,inactive: 5.71%
5,CC1CCCN(CCCNC(=O)C2CC(=O)N(c3ccc(F)c(Cl)c3)C2)C1 (centres undefined),inconclusive: 53.6%
6,COc1ccc2c(c1)c(=O)cc(C)n2CC(=O)NCc1ccco1,inactive: 20%
7,CCN(CC)CCn1c2ccc(Cl)cc2c2nc(C)sc21,inconclusive: 4.67%
8,O=C(OCC(=O)N1CCc2ccccc21)c1ccc(Cl)nc1,inactive: 15%
9,Cc1nc2ccccc2n1CCCOc1ccccc1,inconclusive: 54.8%
10,O=S(=O)(c1ccc(F)cc1)N1CCC(O)(c2ccc3c(c2)OCO3)CC1,inconclusive: 51.3%
11,Cn1c(CN2CCN(c3cccc(Cl)c3)CC2)nc2ccccc21,inconclusive: 56.7%
12,O=C(Nc1cccc(Oc2ccc3c(c2)C(=O)NC3=O)c1)c1ccco1,inactive: 3.54%
13,O=C1CC(Sc2ncn[nH]2)C(=O)N1c1ccccc1 (centres undefined),active: 43.7%
14,Cn1c(/C=C/c2ccc([N+](=O)[O-])o2)nc2ccccc2c1=O,inconclusive: -1.94%
15,CN1C(=O)/C(=C2\SC(=S)N(C(CCC(=O)O)C(=O)O)C2=O)c2ccccc21 (centres undefined),inconclusive: 61.1%
16,CCc1nnc2sc(-c3ccc(NC(=O)CSc4ccc(Cl)cc4)cc3)nn12,inactive: -51.3%
17,COc1ccccc1-c1ccc(=O)n(CC(=O)NC(C)(C)C)n1,inconclusive: 75.9%
18,O=C(c1cccs1)N1CCN(S(=O)(=O)N2CCCCC2)CC1,inactive: 16.7%
19,CC(C)Oc1ccc(Oc2ccc(C(F)(F)F)cn2)cc1,inactive: 6%
20,CC(C)NC(=O)CN1CCC(O)(c2ccccc2)CC1,inconclusive: 51.5%
21,CCOC(=O)c1ccoc1CSCc1ccc(C(=O)OC)o1,inactive: 28%
22,CN(Cc1ccccc1)C(=O)CN(c1ccc(F)cc1)S(=O)(=O)c1ccc2c(c1)OCCO2,inactive: 17%
23,O=C(NCc1ccccn1)C1CCN(S(=O)(=O)N2CCCCC2)CC1,inconclusive: 52.2%
24,Cc1c(NC(=O)C(C)N2CC(C)OC(C)C2)c(=O)n(-c2ccccc2)n1C (centres undefined),inactive: 8.44%
25,COc1cccc(/C=C/C(=O)c2c(O)cc(C)oc2=O)c1O,active: 33.9%
26,O=C(OCn1ncc(Br)c(Br)c1=O)c1c(F)cccc1F,active: 81.6%
27,Cc1cccc(N2CCN(CC(=O)Nc3ccc(-n4cnnn4)cc3)CC2)c1C,inactive: 2.07%

row,SMILES,growth inhibition
1,CN1CCN(C(=O)CN(CCc2ccccc2)S(C)(=O)=O)CC1,inactive: 16.4%
2,COc1ccc(Cl)cc1S(=O)(=O)N1CCN(C(=O)c2ccco2)CC1,inconclusive: 56.1%
3,Cn1c(=O)c(=O)n(C)c2cc(S(=O)(=O)N3CCCCCC3)ccc21,inactive: 0.42%
4,Clc1ccc2c(c1)C(N1CCNCC1)Cc1ccccc1S2 (centres undefined),active: 86%
5,Cc1ccc(N2C(=O)CC(Sc3ncn[nH]3)C2=O)cc1C (centres undefined),inconclusive: 2.16%
6,O=C(Nc1nc2ccc(Cl)cc2s1)C1CCCO1 (centres undefined),active: 30%
7,c1nnc2c3c4c(sc3ncn12)CCCC4,inconclusive: 57.1%
8,CSc1ncccc1C(=O)OCn1nnc2ccccc2c1=O,inconclusive: 56.7%
9,Cc1ccc2nc(-c3cccnc3)oc2c1,inactive: -4.24%
10,Cc1cc(/C=N/n2cnnc2)c(C)n1-c1ccc(OCc2ccc(Cl)cc2Cl)cc1,active: 62.3%
11,COCCN1C=C(C(=O)OC)C(c2ccccc2C(F)(F)F)C(C(=O)OC)=C1,inconclusive: 52.2%
12,Clc1ccccc1-c1nn2c(-c3ccncc3)nnc2s1,inconclusive: 61.3%
13,OC(CNCC1CCCO1)Cn1c2ccc(Br)cc2c2cc(Br)ccc21 (centres undefined),active: 86.7%
14,O=c1c2ccccc2nc2n1C1(CCCCC1)Cc1ccccc1-2,inactive: 5.38%
15,CC(C)C(c1nnnn1C1CCCCC1)N1CCCc2ccccc21 (centres undefined),inconclusive: 51.5%
16,O=C(NCC1COc2ccccc2O1)c1ccc(Cl)cc1 (centres undefined),inconclusive: -12.7%
17,CCOC(=O)c1ccc(NC(=O)CCC(=O)OC)cc1,inactive: 17.3%
18,O=C(CSc1nc(O)cc(=O)n1-c1ccccc1)NC1CCCCC1,inactive: 4.48%
19,O=C(NCc1ccco1)C1CCCN(S(=O)(=O)c2ccc(-n3cnnn3)cc2)C1 (centres undefined),inconclusive: 51.7%
20,CCSc1nc2sc3c(c2c(=O)[nH]1)CC(C)(CC)OC3 (centres undefined),inconclusive: 94.6%
21,CCS(=O)(=O)N1CCN(C(=O)c2ccccc2)CC1,inactive: 11.8%
22,Cc1ccc(-n2c(C)cc(C3N=C(N)Nc4nc5ccccc5n43)c2C)c(C)c1 (centres undefined),active: 92.3%
23,CN1CCN(C2=Cc3ccccc3Sc3cc(F)c(Cl)cc32)CC1,active: 99.2%
24,O=C(CSc1c2c(nc3ccc(Cl)cc13)CCCC2)NCc1ccco1,inconclusive: 50.4%
25,CN1C(=O)C2ON(c3ccccc3)C(c3cccs3)C2C1=O (centres undefined),inconclusive: 3.64%
26,Cc1cc(N2CCN(C(=O)c3ccco3)CC2)n2ncc(-c3ccccc3)c2n1,active: 93.8%
27,CC(C)(C)C(=O)Cn1c(=N)n(Cc2ccccc2Cl)c2ccccc21,inactive: 3.08%

# 19 consecutive compounds out of the list so far, for reference:
row,SMILES,growth inhibition
6,O=C(Nc1nc2ccc(Cl)cc2s1)C1CCCO1 (centres undefined),active: 30%
7,c1nnc2c3c4c(sc3ncn12)CCCC4,inconclusive: 57.1%
8,CSc1ncccc1C(=O)OCn1nnc2ccccc2c1=O,inconclusive: 56.7%
9,Cc1ccc2nc(-c3cccnc3)oc2c1,inactive: -4.24%
10,Cc1cc(/C=N/n2cnnc2)c(C)n1-c1ccc(OCc2ccc(Cl)cc2Cl)cc1,active: 62.3%
11,COCCN1C=C(C(=O)OC)C(c2ccccc2C(F)(F)F)C(C(=O)OC)=C1,inconclusive: 52.2%
12,Clc1ccccc1-c1nn2c(-c3ccncc3)nnc2s1,inconclusive: 61.3%
13,OC(CNCC1CCCO1)Cn1c2ccc(Br)cc2c2cc(Br)ccc21 (centres undefined),active: 86.7%
14,O=c1c2ccccc2nc2n1C1(CCCCC1)Cc1ccccc1-2,inactive: 5.38%
15,CC(C)C(c1nnnn1C1CCCCC1)N1CCCc2ccccc21 (centres undefined),inconclusive: 51.5%
16,O=C(NCC1COc2ccccc2O1)c1ccc(Cl)cc1 (centres undefined),inconclusive: -12.7%
17,CCOC(=O)c1ccc(NC(=O)CCC(=O)OC)cc1,inactive: 17.3%
18,O=C(CSc1nc(O)cc(=O)n1-c1ccccc1)NC1CCCCC1,inactive: 4.48%
19,O=C(NCc1ccco1)C1CCCN(S(=O)(=O)c2ccc(-n3cnnn3)cc2)C1 (centres undefined),inconclusive: 51.7%
20,CCSc1nc2sc3c(c2c(=O)[nH]1)CC(C)(CC)OC3 (centres undefined),inconclusive: 94.6%
21,CCS(=O)(=O)N1CCN(C(=O)c2ccccc2)CC1,inactive: 11.8%
22,Cc1ccc(-n2c(C)cc(C3N=C(N)Nc4nc5ccccc5n43)c2C)c(C)c1 (centres undefined),active: 92.3%
23,CN1CCN(C2=Cc3ccccc3Sc3cc(F)c(Cl)cc32)CC1,active: 99.2%
24,O=C(CSc1c2c(nc3ccc(Cl)cc13)CCCC2)NCc1ccco1,inconclusive: 50.4%

# Going on with the list.

row,SMILES,growth inhibition
1,Cc1nc2ccccc2n1CCC(=O)Nc1cccc(F)c1,inactive: 3.4%
2,Cc1cc2c(cc1C)CSC(c1ccccc1O)SC2,active: 80.7%
3,CCOc1ccc2nc(NC(=O)CSc3nc4c(c(=O)n(C)c(=O)n4C)n3C(C)C)sc2c1,inconclusive: -14.3%
4,Cc1cc(C)c(S(=O)(=O)N2CCC(C(=O)NCc3ccc(Cl)cc3Cl)CC2)c(C)c1,active: 82.3%
5,CC(C)CCOc1ccc(C(=O)CCNC(C)C(=O)O)cc1 (centres undefined),inconclusive: 5.09%
6,CCCCCOC(=O)C1=C(C)NC(=O)NC1c1ccccc1OCC (centres undefined),inconclusive: 54.1%
7,COC(=O)C(CC(=O)c1ccc(Br)cc1)n1ccnc1 (centres undefined),active: 33.5%
8,Cc1nc(-c2coc3cc(O)c(C)cc3c2=O)cs1,inconclusive: 51%
9,Cc1ccc2[nH]c(C)c(/C=N/Nc3nc4ccccc4s3)c2c1,inconclusive: 25.8%
10,CC(C)(C)NC(=O)C1CCN(C(=O)c2ccc(Br)cc2)CC1,inactive: -4%
11,COc1ccccc1-c1noc(CCC(=O)Nc2ccccc2Cl)n1,inactive: -4.14%
12,Cc1[nH][nH]c(=O)c1C(c1ccc(-c2ccc(Cl)cc2)o1)c1c(C)[nH][nH]c1=O,active: 75.8%
13,O=C(c1ccc2ccccc2c1)c1c[nH]cc1-c1ccccc1,inconclusive: -22.4%
14,CCC(=O)Nc1ccc2c(c1)ncn2-c1ccc(OC)cc1,inconclusive: 51.3%
15,CCCc1ccc(Oc2c(-c3ccc(O)c(C)c3O)n[nH]c2C)cc1,active: 81.4%
16,O=C1c2ccccc2S(=O)(=O)N1CC1CC(c2ccccc2)=NO1 (centres undefined),active: 42.1%
17,CC(=O)Oc1ccc(N2C(=O)C3C(C2=O)C2(C)C=CC3(C)O2)cc1 (centres undefined),active: 61.1%
18,Cc1cc(Cl)ccc1N=c1ssnc1Cl,active: 78.9%
19,COCCNC(=O)c1nn(-c2cc(OC)cc(OC)c2)c(=O)c2ccccc12,inconclusive: 16.1%
20,CCC1CCCCN1CCCNC(=O)C1CCN(S(=O)(=O)N2CCCCC2)CC1 (centres undefined),inconclusive: 50.4%
21,N#CCSc1nc2c(cc1C#N)CCCC2,inconclusive: 12.8%
22,Nc1cc(CN2C(=O)c3ccccc3C2=O)cc(Cl)c1O,inconclusive: 53.2%
23,CC(C)(C)C(=O)C(Cc1ccccc1Cl)n1cncn1 (centres undefined),active: 74.4%
24,CCOC(=O)N1CCN(CC(O)c2ccc3c(c2)CCN3)CC1 (centres undefined),inconclusive: -3.02%
25,CCOC(=O)c1c(NC(=O)CSc2nnnn2-c2ccc(OC)cc2)sc(C)c1C,inconclusive: 56.4%
